Article PMC5897410

Chains of the proteins cited; added tags and fusions are not shown. Residues count along the entry.
UniProt P0CS90, residues 24-654: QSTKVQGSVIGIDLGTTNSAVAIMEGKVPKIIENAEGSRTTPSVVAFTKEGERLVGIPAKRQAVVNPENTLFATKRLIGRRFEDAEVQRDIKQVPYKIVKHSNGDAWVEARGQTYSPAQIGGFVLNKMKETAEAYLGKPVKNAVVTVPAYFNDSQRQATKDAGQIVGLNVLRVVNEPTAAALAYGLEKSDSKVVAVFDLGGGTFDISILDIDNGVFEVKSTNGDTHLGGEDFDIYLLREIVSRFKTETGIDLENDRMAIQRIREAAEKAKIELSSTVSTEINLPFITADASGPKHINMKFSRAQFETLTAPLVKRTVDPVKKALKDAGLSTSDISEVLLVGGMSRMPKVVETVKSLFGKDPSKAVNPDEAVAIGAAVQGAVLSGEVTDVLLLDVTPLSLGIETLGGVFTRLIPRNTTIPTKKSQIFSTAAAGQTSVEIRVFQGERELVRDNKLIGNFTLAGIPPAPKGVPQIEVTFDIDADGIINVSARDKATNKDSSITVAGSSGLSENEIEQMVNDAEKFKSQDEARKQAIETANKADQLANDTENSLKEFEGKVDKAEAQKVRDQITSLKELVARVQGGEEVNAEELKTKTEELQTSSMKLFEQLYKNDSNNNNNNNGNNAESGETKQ
UniProt P11484: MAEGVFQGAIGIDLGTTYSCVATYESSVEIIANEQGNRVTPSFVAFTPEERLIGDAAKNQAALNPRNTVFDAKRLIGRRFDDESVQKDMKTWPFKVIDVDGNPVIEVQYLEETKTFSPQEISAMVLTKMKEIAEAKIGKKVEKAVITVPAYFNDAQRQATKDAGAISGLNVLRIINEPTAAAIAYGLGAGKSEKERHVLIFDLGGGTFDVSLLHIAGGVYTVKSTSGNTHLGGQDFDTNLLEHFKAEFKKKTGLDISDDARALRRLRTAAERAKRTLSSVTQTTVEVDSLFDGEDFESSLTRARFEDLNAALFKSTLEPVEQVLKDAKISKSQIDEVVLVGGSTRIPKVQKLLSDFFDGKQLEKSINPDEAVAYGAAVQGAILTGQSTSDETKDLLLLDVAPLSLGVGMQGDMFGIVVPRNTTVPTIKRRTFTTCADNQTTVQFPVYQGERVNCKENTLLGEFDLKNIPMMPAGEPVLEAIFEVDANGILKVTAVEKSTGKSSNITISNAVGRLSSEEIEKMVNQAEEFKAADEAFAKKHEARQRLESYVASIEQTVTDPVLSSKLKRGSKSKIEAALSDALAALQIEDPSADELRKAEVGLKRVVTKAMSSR
UniProt P10591: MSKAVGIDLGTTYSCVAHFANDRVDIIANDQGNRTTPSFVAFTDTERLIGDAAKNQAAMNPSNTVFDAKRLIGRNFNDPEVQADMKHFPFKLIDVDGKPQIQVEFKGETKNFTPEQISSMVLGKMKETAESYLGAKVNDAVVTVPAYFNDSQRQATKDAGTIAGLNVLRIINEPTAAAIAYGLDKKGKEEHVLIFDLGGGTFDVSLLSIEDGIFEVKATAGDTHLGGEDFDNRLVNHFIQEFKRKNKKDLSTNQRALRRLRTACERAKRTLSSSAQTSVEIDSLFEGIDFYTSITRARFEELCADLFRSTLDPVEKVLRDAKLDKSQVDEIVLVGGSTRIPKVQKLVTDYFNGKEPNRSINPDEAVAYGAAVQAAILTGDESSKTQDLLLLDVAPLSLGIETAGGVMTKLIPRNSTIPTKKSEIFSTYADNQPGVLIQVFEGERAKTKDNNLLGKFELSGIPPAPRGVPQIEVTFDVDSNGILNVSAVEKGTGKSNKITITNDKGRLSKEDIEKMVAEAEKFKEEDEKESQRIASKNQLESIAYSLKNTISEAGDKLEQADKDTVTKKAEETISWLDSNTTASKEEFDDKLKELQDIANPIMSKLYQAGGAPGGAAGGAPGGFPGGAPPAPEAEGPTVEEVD

T1: GST fused to the unmutated aconitase (Aco1) C-terminal domain (yeast (S. cerevisiae)) (UniProt P19414)
T1 sequence: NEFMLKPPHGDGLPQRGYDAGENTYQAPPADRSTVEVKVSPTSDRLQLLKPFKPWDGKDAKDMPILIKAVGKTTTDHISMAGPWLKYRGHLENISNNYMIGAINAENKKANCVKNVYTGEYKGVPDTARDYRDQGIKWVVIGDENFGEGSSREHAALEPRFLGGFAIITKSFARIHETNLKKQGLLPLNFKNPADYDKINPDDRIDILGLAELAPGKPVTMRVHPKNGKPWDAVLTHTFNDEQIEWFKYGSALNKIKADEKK

B1: Sse2, endogenous (protein, UniProt P32590 1-693)
chain: MSTPFGLDLGNNNSVLAVARNRGIDVVVNEVSNRSTPSLVGFGPRNRYLGESGKTKQTSNVKNTVENLKRIIGLKFKDPEFDIENKFFTSKLVQLKNGKVGVEVEFGGKTHVFSATQLTAMFIDKVKHTVQEETKSSITDVCLAVPVWYSEEQRYNIADAARIAGLNPVRIVNDVTAAAVSYGVFKNDLPGPEEKPRIIGLVDIGHSTYTCSIMAFRKGEMKVLGTAYDKHFGGRDFDRAITEHFADQFKDKYKIDIRKNPKAYNRILIAAEKLKKVLSANTTAPFSVESVMDDIDVSSQLSREELEELVEPLLKRVTYPITNALAQAKLTVNDIDFVEIIGGTTRIPVLKKSISDVFGKPLSSTLNQDEAVAKGAAFICAIHSPTLRVRPFKFEDIDPYSVSYTWDKQVDDEDRLEVFPANSSYPSTKLITLHRTGDFSMKAVYTHPSKLPKGTSTTIAKWSFTGVKVPKDQDFIPVKVKLRCDPSGLHIIENAYTTEDITVQEPVPLPEDAPEDAEPQFKEVTKTIKKDVLGMTAKTFALNPVELNDLIEKENELRNQDKLVAETEDRKNALEEYIYTLRAKLDDEYSDFASDAEKEKLKNMLATTENWLYGDGDDSTKAKYIAKYEELASLGNIIRGRYLAKEEEKRQALRANQETSKMNDIAEKLAEQRRARAASDDSDDNNDENMDLD

biological target: T1, GST fused to the unmutated aconitase (Aco1) C-terminal domain (yeast (S. cerevisiae)); test: affinity purification with mass spectrometry; GST-C or GST-CΔ6 (bait) expressed in yeast, pulled down from lysates with glutathione beads; trypsin digestion in solution or in gel; LC-MS/MS

Row | binding | Molecule
1 | binds | Ssc1, endogenous (from UniProt P0CS90 24-654)
2 | binds | Ssb1, endogenous (from UniProt P11484 1-613)
3 | binds | Ssa1 (cytosolic Hsp70), endogenous (from UniProt P10591 1-642)
4 | binds | B1

These are yes or no findings as the source states them, for the method shown. Binding seen in cells or lysates may run through a third protein. Here binding means that the protein was enriched with, or labelled near, the bait; the list need not be complete. Where a sequence is shown, tags or fusion partners need not be part of it.
